According to publication PMC12040169 (PLOS Biology, 2025):
The other results are listed elsewhere or left out.

system: T1, CTL2-GFP (C. trachomatis L2/434/Bu, GFP-expressing); set-up: species or system HeLa; Intracellular C. trachomatis growth in HeLa cells, bulk GFP fluorescence relative to DMSO; settings: bulk GFP, single well; 28.5 h, 10 µM; inhibitor
T1 construct: L2/434/Bu, GFP-expressing

Point of comparison: `CCOCCCNC(=O)/C(=C/c1cccnc1)NC(=O)c1ccccc1` [CBK126866], “% of control remaining” value 107.005%. Against it:
- CN1CCC[C@H]1C(=O)N1CCN(c2ncccn2)CC1 [CBK144528] — higher, 113.878%
- CN(CC(=O)Nc1ccccc1N1CCCC1)Cc1cnn(Cc2ccccc2)c1 [CBK295187] — higher, 142.019%
- COc1ccc(C(C)C)cc1-c1cnc2[nH]c(=O)n([C@@H](CO)C(C)C)c2n1 [CBK064495] — higher, 109.097%
- Nc1nonc1C(=O)NCCNc1ccc([N+](=O)[O-])cc1 [CBK262577] — lower, 100%
- CC1CCN(C(=O)CN2C(=O)N3CCN=C3c3ccccc32)CC1 [CBK283946] — higher, 138.661%
- C[C@H](NC(=O)N1CCN(C(=O)CCCc2c[nH]c3ccccc23)CC1)C(=O)O [CBK286749] — higher, 115.578%
- CC(=O)Nc1ccc(-c2nnc(SCc3c(Cl)cccc3[N+](=O)[O-])n2C)cc1 [CBK265823] — higher, 123.138%
- COCCNC(=O)c1cc(-c2ccccc2)cnc1N(C)S(C)(=O)=O [CBK076484] — higher, 107.79%
- COC(=O)CC1C(=O)NCCN1C(=S)NC(=O)c1ccc(-c2ccccc2)cc1 (stereo not drawn) [CBK268711] — higher, 165.745%
- Cc1ccc(CNC(=O)Cn2nnc(-c3ccc(CN4CC(C)OC(C)C4)cc3)n2)cc1 (stereo not drawn) [CBK144554C] — lower, 99.2327%
- O=C(O)CCN1CCN(c2ccc(F)cc2)CC1 [CBK287262] — higher, 151.931%
- O=C(CCCn1ccnc1)N1CCc2[nH]c3ccccc3c2C1 [CBK281872] — higher, 140.65%
- O=C(CSc1nnc(-c2ccccc2)n1-c1ccc(Cl)cc1)NCc1ccco1 [CBK266637] — higher, 163.113%
- Cc1nc(Nc2ccc(Cl)cc2)nc(Oc2ccccc2)n1 [CBK003915] — lower, 72.8595%
- COc1cc([N+](=O)[O-])ccc1NC(=O)CCN1C(=O)C2C3CCC(C3)C2C1=O (stereo not drawn) [CBK265141] — higher, 134.699%
- O=c1[nH]nc2c3c4c(sc3ncn12)CCCC4 [CBK284235] — higher, 125.794%
- NC(=O)CC1C(=O)N(c2ccc(F)cc2)C(=O)N1NC(=O)CCc1ccccc1 (stereo not drawn) [CBK269033] — lower, 58.7639%
- COC(=O)C1=C(C)N=c2s/c(=C/c3ccc(OC)c(OC(C)=O)c3)c(=O)n2C1c1cccs1 (stereo not drawn) [CBK077753] — higher, 113.718%
- COc1ccc2[nH]cc(CCNC(=O)c3ccc4[nH]c(=O)[nH]c4c3)c2c1 [CBK122721] — higher, 112.366%
- O=C(CSc1nc2sc3c(c2c(=O)n1Cc1ccco1)CCC3)NCc1ccco1 [CBK268499] — higher, 132.538%
- Nc1nnnn1/N=C/c1cc(Cl)cc(Cl)c1OCc1ccc(Cl)cc1Cl [CBK263853] — lower, 98.2354%
- CSc1cccc(NC(=O)Nc2ccc3c(c2)OCCO3)c1 [CBK300527] — higher, 120.402%
- O=C1NCCNC(=O)C2(C/C=C/COc3ccccc31)CCN(C(=O)CCC1CCCC1)CC2 [CBK291995] — lower, 87.1173%
- O=C1NC2(CCc3ccccc31)CCN(C(=O)c1cccnc1)C2 (stereo not drawn) [CBK283335] — higher, 128.534%
- CCc1ccc2[nH]c3nc(NN)nnc3c2c1 [CBK262734] — lower, 101.359%
- CCC1CCCCN1S(=O)(=O)c1ccc(-n2ncc(Cl)c(Cl)c2=O)cc1 (stereo not drawn) [CBK305038] — lower, 49.0843%
- O=C(NCCn1c(-c2ccncc2)nc2ccccc21)c1ccc(F)c(F)c1 [CBK288577] — lower, 105.744%
- CC(C)(C)OC(=O)N1CCN(S(=O)(=O)c2ccc(Cl)c([N+](=O)[O-])c2)CC1 [CBK003165] — lower, 68.951%
- O=C(CCc1ccc(F)cc1)N1CCC(c2cccc(Cc3ccccc3)n2)CC1 [CBK286511] — higher, 122.558%
- Cc1cc(C(=O)N2CCC(c3nc(C)n4c(C)csc34)CC2)on1 [CBK285247] — higher, 159.214%
- CN(C)CCNC(=O)c1cc(-c2ccc(Cl)cc2)on1 [CBK116711T] — higher, 181.326%
- OC(CNc1cccc2ccccc12)Cn1c2ccc(Br)cc2c2cc(Br)ccc21 (stereo not drawn) [CBK261420] — lower, 69.256%
- COc1cc(NC(=O)CN2CCc3c(c(CO)nn3C)C2)cc(OC)c1 [CBK306841] — higher, 112.451%
- CCN(CCO)C(=O)c1coc(COc2ccc3sc(C)nc3c2)n1 [CBK307321] — higher, 121.101%
- CC(C)NC(=O)N[C@H]1CCN2C(=O)c3cc(-c4ccc(F)cc4F)ccc3NC(=O)[C@H]12 [CBK289346] — higher, 121.41%
- OC(COc1ccc(OC(F)(F)F)cc1)CN1CCN(c2nc3ccc(Cl)cc3s2)CC1 (stereo not drawn) [CBK074639] — lower, 76.069%
- CC(=O)N(C)[C@H]1CC[C@]2(CC1)CNC(=O)c1cc(C)ccc1O2 [CBK281690] — lower, 93.3671%
- COc1ccc([C@@]23CC[C@@H](NC(=O)c4ccc(SC(F)(F)F)cc4)C[C@@H]2N(C)CC3)cc1OC [CBK076654T] — lower, 99.982%
- CN1CCOc2cc(S(=O)(=O)Nc3cccc(-c4cnco4)c3)ccc21 [CBK067119] — lower, 92.9612%
- CC(=O)Nc1ccc([C@@H](O)[C@H]2COCC(=O)N2C)cc1 [CBK289059] — higher, 138.547%
- O=C(c1cc[nH]c1)N1CCCC2(CCN(C(=O)c3ccoc3)C2)C1 (stereo not drawn) [CBK131629] — lower, 97.2114%
- Cc1ccc(CN2CCC(N3C(=O)NC4(CCN(CC(C)C)CC4)C3=O)CC2)cc1C [CBK285822] — higher, 118.072%
- CCc1nn(C)cc1CNC1CCCN(c2ccc(C#N)cc2)C1=O (stereo not drawn) [CBK304176] — lower, 94.2824%
- O=C(CCOc1ccc(F)cc1)Nc1cnc(-c2ccc(F)cc2)c(-c2ccoc2)n1 [CBK037166] — higher, 128.949%
- O=C(c1c[nH]c2ccccc12)C(O)C(c1ccccc1)N1CCOCC1 (stereo not drawn) [CBK267802] — lower, 98.6306%
- Cc1ccccc1OCCCn1cncc1-c1cn(C)nc1C [CBK281813] — higher, 135.229%
- CC(NC(=O)Cc1ccc(-c2ccccc2)cc1)c1cccnc1 (stereo not drawn) [CBK295147] — higher, 147.614%
- C=CCn1c(NCc2ccco2)nc2ccccc21 [CBK269751] — higher, 128.311%
- C[C@H](Nc1ccc(C(F)(F)F)cc1[N+](=O)[O-])C(=O)NCCOc1ccccc1F [CBK297535] — higher, 131.487%
- CCC1CN(CC(=O)NCc2ccc(OCC(N)=O)cc2)CCO1 (stereo not drawn) [CBK305774] — higher, 141.161%
- Cc1ccc(NC(=O)c2cc(N3C(=O)c4ccc(C(=O)O)cc4C3=O)ccc2N2CCCCC2)cc1 [CBK265274] — lower, 100%
- CCOC(=O)c1ccoc1C[N+](C)(CC)CC [CBK007022I] — higher, 123.263%
- O=C(Cn1cccn1)N1CCc2[nH]c3ccccc3c2C1 [CBK281839] — higher, 144.513%
- O=C(O)c1ccc(N2C(=O)/C(=C/c3c[nH]c4ccccc34)SC2=S)cc1 [CBK263085] — lower, 100%
- O=C(O)C1(Oc2ccc3ccccc3c2)CCN(C2CCNCC2)CC1 [CBK306615] — higher, 122.488%
- COc1ccc(-n2ncc(-c3cccnc3)n2)cn1 [CBK112827] — lower, 86.9166%
- CCn1c(SCC(=O)Nc2ccc(Br)cc2F)nnc1-c1ccc(OC)cc1 [CBK266172] — higher, 219.197%
- O=S(=O)(NC1CCCCC1)c1ccc(S(=O)(=O)N2CCOCC2)cc1 [CBK269618] — lower, 77.8155%
- Cc1nnc(CSc2nnc(-c3ccc(Cl)cc3)[nH]2)o1 [CBK270241] — higher, 129.631%
- CC(Cc1c[nH]c2ccccc12)NC(=O)CSS(=O)(=O)O (stereo not drawn) [CBK260942N] — lower, 100%
- CC[C@H]1CCCCN1C(=O)c1sc2ncccc2c1Cl [CBK092276] — higher, 119.729%
- Cc1ccc2c(N)c(C(=O)c3ccc4c(c3)OCCO4)sc2n1 [CBK270265] — higher, 162.498%
- CCn1cncc1CN(Cc1ccc(F)cc1)CC1CCCO1 (stereo not drawn) [CBK283036] — higher, 142.835%
- O=C(Nc1ccc2[nH]ccc2c1)c1ccc(Cl)cc1 [CBK159668] — lower, 97.4758%
- CN1CCN(C(=O)c2ccc(NS(=O)(=O)c3cc(Cl)sc3Cl)cc2)CC1 [CBK034549] — higher, 137.881%
- COCCN(CCOC)c1ncc(C#N)cc1Cl [CBK306227] — higher, 136.259%
- CN(c1ncc(-c2ccccc2)cc1C(=O)NCc1cccnc1)S(C)(=O)=O [CBK076507] — lower, 97.6541%
- COc1ccc(C(=O)Nc2c(C)nn(C)c2N2CCNCC2)cc1 [CBK050306T] — higher, 122.23%
- COc1ccc(C2(C(=O)NCCCN3CCN(C)CC3)CC2)cc1 [CBK149822] — lower, 104.135%
- O=C(Cn1nnc2ccccc2c1=O)N1CCCC(C(F)(F)F)C1 (stereo not drawn) [CBK305900] — higher, 129.18%
- Cc1nc(C2(O)CCCN(C3CCCC3)CC2)sc1COc1ccc(Cl)cc1 (stereo not drawn) [CBK285940] — lower, 104.124%
- c1cnc(N2CCN(CC3CC3)CC2)c(OCCN2CCOCC2)n1 [CBK082909] — higher, 116.44%
- O=C(c1ccc[nH]1)N1CCc2ccccc21 [CBK200285] — higher, 111.123%
- O=C(NCc1c(F)cccc1F)c1ccc(-c2ccc(OC(F)(F)F)cc2)nc1 [CBK161007T] — higher, 136.714%
- OCCNc1ncnc2c1ncn2Cc1ccccc1 [CBK287933] — higher, 126.938%
- Cc1nn(C)cc1-c1cncn1CC1(N(C)C)CCC(C)CC1 (stereo not drawn) [CBK281799] — higher, 127.496%
- Cc1noc2nc(C3CCN(C(=O)C4CC4)CC3)cc(C(F)F)c12 [CBK285306] — higher, 140.223%
